# PubChem BioAssay AID2283160 (EPA ToxCast)
# Amino acid sequences for entries named in this document (tags omitted).
# UniProt P22607, whole entry, looked up: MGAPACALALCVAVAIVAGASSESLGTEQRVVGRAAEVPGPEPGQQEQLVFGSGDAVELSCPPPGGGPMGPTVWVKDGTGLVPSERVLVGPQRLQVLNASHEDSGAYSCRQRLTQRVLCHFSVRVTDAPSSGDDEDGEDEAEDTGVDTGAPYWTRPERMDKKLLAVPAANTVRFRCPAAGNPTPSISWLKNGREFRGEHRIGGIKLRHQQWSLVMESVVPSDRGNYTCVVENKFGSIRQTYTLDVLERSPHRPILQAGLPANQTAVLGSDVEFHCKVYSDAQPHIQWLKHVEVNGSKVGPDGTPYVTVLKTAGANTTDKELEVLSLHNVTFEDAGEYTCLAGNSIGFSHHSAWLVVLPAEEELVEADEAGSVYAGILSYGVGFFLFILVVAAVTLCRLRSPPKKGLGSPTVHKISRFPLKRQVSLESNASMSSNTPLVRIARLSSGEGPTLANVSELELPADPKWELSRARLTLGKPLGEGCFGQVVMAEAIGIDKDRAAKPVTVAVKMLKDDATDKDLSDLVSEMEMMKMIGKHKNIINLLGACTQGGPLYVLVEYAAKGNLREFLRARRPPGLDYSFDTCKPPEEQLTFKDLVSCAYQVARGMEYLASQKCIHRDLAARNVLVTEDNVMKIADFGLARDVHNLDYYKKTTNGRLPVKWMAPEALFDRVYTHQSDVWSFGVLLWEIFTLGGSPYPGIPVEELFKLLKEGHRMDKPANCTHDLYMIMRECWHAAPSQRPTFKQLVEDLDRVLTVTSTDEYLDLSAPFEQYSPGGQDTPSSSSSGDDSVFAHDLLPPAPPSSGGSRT
# The list shows a part of the results, in another mix than the full data. Results filed as inconclusive are left out. Activity calls are given as the source filed them. How the source made its calls: active means hit-call score of the fitted dose curve at least 0.9, where 1 is the maximum; inconclusive means response in the unintended direction; inactive means score below 0.9.
# Biological target: human Fibroblast Growth Factor Receptor 3 (FGFR3), FGFR3 (gene 2261) (UniProt P22607)
# Assay: NVS_ENZ_hFGFR3: NovaScreen (NVS) Enzymatic Assay for human Fibroblast Growth Factor Receptor 3 (FGFR3)
# Method: NVS_ENZ_hFGFR3 is a biochemical, single-readout assay that uses extracted gene-proteins in a cell-free assay. Measurements were taken 1 hour after chemical dosing in a 384-well plate.NVS_ENZ_hFGFR3 is one of one assay component(s) measured or calculated from the NVS_ENZ_hFGFR3 assay. It is designed to make measurements of enzyme activity, a form of enzyme reporter, as detected with fluorescence intensity signals by Fluorescence and electrophoretic mobility shift technology.Data from the assay component NVS_ENZ_hFGFR3 was analyzed into 1 assay endpoint. This assay endpoint, NVS_ENZ_hFGFR3, was analyzed in the positive analysis fitting direction relative to DMSO as the negative control and baseline of activity. Using a type of enzyme reporter, loss-of-signal activity can be used to understand changes in the enzymatic activity as they relate to the gene FGFR3. Furthermore, this assay endpoint can be referred to as a primary readout, because this assay has produced multiple assay endpoints where this one serves a enzymatic activity function. To generalize the intended target to other relatable targets, this assay endpoint is annotated to the kinase intended target family, where the subfamily is receptor tyrosine kinase. […]
structure (smiles),measurement,value
O=S(=O)(O)C(F)(F)C(F)(F)C(F)(F)C(F)(F)C(F)(F)C(F)(F)C(F)(F)C(F)(F)F,AC50,active: 38.4 µM
